Assay results reported in the supplement of paper PMC10849652.
The list shows a part of the results. Residues, ends and D or L forms follow the SMILES beside them. *: point of attachment. Cbz = O=C(OCc1ccccc1)*

The chains behind the UniProt entries cited, without tags or fusion partners. Where a name states a change or a piece, a line headed by the entry shows the natural chain unless it says otherwise.
UniProt P06733, whole entry, looked up: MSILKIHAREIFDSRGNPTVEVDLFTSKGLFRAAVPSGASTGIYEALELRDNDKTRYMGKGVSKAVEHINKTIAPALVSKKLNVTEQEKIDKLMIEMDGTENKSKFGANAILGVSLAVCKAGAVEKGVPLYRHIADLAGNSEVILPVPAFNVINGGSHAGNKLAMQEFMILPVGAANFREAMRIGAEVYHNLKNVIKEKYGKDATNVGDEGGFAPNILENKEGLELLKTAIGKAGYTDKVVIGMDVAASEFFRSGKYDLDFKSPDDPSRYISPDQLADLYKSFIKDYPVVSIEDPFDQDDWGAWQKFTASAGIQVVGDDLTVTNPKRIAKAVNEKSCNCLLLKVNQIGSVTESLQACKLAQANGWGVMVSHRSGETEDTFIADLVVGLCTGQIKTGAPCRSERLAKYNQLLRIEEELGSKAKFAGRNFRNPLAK
UniProt Q9NPA0: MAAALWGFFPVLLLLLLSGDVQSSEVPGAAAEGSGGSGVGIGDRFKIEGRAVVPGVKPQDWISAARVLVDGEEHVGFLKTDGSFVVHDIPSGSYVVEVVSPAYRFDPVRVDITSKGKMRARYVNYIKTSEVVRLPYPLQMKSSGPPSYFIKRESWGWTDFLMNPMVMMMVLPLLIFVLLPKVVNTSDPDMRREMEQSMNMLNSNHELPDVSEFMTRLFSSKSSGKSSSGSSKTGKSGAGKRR
UniProt Q8N766: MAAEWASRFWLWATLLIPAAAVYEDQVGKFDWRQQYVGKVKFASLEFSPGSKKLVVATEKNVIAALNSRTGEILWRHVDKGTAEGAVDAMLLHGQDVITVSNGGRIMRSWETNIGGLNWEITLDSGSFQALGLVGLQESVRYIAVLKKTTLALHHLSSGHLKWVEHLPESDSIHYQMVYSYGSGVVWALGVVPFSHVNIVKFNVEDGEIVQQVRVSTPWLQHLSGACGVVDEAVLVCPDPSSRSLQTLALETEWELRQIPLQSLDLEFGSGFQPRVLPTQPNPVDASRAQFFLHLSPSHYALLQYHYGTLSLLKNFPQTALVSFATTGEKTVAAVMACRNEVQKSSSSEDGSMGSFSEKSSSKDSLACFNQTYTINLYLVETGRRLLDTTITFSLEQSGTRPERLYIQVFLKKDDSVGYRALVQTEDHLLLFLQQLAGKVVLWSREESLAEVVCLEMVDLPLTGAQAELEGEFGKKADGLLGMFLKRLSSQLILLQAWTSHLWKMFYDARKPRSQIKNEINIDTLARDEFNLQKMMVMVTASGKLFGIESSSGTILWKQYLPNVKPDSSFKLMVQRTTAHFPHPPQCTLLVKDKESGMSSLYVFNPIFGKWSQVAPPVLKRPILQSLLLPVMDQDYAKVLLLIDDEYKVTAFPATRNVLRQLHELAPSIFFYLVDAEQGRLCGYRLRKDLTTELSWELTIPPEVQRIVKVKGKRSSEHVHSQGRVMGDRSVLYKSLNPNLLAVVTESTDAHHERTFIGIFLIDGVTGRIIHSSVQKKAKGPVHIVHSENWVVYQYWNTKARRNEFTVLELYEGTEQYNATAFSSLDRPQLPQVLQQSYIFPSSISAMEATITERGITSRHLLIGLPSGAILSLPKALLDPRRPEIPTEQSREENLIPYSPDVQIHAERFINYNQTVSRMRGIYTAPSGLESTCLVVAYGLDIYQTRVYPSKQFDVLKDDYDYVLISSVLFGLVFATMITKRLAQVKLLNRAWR
UniProt Q9P0I2: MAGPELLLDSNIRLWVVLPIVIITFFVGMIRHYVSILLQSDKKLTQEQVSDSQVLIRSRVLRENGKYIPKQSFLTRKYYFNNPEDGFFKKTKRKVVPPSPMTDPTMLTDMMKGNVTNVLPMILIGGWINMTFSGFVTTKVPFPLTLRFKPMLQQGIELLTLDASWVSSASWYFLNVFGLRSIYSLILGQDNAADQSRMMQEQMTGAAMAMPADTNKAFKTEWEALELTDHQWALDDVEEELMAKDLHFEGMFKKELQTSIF
UniProt P09104, whole entry, looked up: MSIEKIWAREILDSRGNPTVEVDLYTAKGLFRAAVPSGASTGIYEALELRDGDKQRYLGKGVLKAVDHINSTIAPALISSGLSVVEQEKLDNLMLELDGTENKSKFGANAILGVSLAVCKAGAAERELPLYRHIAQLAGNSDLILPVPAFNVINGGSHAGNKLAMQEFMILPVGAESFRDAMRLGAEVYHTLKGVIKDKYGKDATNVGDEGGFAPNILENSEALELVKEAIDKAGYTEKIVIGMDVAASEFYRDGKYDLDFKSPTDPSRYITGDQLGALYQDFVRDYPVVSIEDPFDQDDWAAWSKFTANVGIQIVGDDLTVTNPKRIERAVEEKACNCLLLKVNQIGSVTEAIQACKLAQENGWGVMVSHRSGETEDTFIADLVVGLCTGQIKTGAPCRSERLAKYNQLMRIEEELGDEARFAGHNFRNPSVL
UniProt P19525: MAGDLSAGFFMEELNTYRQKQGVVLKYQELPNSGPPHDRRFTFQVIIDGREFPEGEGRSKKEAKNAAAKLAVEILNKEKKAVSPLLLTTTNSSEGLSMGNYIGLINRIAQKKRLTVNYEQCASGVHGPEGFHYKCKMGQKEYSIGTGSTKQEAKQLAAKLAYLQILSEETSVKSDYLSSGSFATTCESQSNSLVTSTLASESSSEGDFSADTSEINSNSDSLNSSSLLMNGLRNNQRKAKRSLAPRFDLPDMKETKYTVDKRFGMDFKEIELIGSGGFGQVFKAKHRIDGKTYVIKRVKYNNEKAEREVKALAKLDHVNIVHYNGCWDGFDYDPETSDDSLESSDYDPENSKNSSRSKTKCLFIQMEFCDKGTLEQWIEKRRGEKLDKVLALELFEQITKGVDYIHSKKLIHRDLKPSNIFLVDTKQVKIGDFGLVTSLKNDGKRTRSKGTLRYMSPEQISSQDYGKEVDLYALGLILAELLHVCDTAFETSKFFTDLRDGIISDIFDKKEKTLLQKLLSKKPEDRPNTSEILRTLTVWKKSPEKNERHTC
UniProt Q05BV3: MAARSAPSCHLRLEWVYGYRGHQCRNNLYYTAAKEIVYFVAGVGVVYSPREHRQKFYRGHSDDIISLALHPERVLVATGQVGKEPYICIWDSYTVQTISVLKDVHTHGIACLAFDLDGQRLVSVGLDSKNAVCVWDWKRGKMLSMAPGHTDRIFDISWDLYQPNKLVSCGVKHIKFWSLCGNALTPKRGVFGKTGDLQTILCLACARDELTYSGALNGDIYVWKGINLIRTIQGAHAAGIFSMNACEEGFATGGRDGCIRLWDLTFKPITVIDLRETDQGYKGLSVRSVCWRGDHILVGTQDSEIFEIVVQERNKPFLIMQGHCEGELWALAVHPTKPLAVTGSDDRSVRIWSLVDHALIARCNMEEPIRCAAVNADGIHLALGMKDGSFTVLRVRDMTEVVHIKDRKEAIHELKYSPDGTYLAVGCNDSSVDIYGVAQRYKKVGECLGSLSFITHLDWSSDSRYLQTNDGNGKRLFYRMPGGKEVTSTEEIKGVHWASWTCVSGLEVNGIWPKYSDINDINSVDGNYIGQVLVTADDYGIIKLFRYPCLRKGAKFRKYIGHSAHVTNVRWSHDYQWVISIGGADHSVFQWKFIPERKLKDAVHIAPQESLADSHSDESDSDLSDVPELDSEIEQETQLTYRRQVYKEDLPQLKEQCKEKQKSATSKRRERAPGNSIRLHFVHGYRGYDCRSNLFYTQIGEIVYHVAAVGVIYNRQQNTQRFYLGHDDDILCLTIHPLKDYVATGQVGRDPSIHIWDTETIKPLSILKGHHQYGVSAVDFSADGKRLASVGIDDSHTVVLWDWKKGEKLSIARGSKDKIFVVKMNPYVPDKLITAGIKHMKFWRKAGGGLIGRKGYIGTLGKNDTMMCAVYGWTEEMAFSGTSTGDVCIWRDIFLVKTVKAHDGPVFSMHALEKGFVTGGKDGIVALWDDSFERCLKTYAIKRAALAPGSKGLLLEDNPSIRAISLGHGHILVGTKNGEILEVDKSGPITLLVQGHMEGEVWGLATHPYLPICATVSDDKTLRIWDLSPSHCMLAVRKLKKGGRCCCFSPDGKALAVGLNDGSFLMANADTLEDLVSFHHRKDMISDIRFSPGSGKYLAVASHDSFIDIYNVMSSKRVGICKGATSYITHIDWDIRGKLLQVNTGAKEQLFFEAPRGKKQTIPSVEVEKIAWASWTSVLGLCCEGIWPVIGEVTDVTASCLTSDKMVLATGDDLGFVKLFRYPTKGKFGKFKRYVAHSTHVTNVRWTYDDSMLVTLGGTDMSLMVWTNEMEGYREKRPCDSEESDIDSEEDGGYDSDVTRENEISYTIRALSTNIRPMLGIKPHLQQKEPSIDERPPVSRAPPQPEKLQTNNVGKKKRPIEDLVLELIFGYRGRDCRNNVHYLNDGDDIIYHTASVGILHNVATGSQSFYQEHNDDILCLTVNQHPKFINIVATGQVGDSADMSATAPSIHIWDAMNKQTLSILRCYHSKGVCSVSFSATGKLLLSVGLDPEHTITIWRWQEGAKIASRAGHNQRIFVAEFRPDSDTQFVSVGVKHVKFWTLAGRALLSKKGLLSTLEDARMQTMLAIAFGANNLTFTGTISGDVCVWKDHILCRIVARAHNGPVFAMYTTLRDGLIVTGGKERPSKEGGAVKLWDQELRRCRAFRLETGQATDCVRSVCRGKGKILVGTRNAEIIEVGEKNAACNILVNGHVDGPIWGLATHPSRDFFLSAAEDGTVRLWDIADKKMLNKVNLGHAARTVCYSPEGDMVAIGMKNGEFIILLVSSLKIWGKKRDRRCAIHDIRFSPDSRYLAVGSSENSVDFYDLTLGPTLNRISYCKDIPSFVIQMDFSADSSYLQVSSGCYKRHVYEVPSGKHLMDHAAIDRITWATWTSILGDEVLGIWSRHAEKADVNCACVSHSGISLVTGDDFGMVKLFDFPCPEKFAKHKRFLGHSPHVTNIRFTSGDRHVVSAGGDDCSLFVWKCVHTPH
UniProt Q9BW60: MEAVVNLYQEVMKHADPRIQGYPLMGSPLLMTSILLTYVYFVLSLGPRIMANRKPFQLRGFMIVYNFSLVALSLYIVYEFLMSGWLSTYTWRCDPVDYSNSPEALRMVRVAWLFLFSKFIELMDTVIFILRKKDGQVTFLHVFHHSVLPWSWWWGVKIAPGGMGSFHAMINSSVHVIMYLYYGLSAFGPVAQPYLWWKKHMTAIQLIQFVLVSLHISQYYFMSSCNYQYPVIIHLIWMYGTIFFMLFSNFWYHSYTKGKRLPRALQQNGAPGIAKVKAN
UniProt Q9NZN4: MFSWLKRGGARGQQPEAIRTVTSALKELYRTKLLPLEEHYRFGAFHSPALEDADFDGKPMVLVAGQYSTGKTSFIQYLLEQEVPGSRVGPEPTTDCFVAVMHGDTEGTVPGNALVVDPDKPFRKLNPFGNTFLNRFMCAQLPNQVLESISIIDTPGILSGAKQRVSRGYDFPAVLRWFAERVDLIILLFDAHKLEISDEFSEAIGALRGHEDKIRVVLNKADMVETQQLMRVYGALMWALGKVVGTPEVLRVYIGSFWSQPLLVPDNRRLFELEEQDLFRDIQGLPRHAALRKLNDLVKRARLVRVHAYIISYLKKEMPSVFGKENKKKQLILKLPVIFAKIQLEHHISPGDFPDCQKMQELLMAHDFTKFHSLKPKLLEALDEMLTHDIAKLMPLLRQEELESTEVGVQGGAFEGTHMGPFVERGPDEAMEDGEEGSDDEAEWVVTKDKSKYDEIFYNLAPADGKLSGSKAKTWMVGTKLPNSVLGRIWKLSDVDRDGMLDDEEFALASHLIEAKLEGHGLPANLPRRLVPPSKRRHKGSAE
UniProt O60573: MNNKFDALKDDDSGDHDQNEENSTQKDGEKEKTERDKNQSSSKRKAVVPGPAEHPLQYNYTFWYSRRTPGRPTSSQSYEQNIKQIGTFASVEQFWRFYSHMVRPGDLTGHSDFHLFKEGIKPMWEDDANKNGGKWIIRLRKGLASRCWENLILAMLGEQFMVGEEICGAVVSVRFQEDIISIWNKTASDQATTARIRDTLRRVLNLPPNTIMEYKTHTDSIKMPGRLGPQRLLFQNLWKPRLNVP

How the values were obtained:
Experiment in all cases: log2 fold change, soluble protein after heating vs DMSO (PISA); higher = thermal stabilisation; K562 cells, 10 uM, 30 min; active = over 0.2 and 3.5 SD of the protein, either way, in both replicates (recomputed)
erlotinib = compound: C#Cc1cccc(Nc2ncnc3cc(OCCOC)c(OCCOC)cc23)c1 [erlotinib]
Procedure, shortened: (§1)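 K562 cells at 2×10^6 cells/mL were treated for 30 min with 10 μM compound, and aliquots were heated for 3 min over 48°C-58°C before pooling. Extraction used PBS with 0.5% NP-40 at 4°C, and soluble protein was the supernatant after 21,000xg for 90 min, measured by TMTpro 16plex LC-MS/MS with channel sums equalised. Thermal stability values, relative to control samples and from duplicates, are log2 fold changes.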

[1] = compound: C/C(=N\NC(=O)C1=CC(=CC=C1)S(=O)(=O)N2CCOCC2)/C3=C(C=CC(=C3)Cl)O
Procedure, shortened: as §1

[2] = compound: C1=CC(=C(C=C1Cl)C2=NC3=NC=CN=C3C(=N2)NC4=CC=NC=C4)F
Procedure, shortened: as §1

[3] = compound: C1=CC(=CC=C1C2=NC3=C(N2)C=C(C=C3)C(=O)N)OC4=CC=C(C=C4)Cl
Procedure, shortened: as §1

[4] = compound: C1=CC2=C(C=CC(=C2)/C=C\3/C(=O)NC(=NCC4=CC=CS4)S3)N=C1
Procedure, shortened: as §1

[5] = compound: C1=CC2=NC=CN=C2C=C1/C=C/3\C(=O)NC(=O)S3
Procedure, shortened: as §1

[6] = compound: C1=CC=C(C=C1)C2=NC(=C(N2)C3=CC=NC=C3)C4=CC(=C(C=C4)Cl)O
Procedure, shortened: as §1

[7] = compound: C1=CC=C2C(=C1)C3=NNC4=CC=CC(=C43)C2=O
Procedure, shortened: as §1

[8] = compound: C1CCN(C1)C(=O)NC2=CC=CC(=C2)NC3=NC=C(C(=N3)NCCC4=CN=CN4)Br
Procedure, shortened: as §1

[9] = compound: C1CN(CCC1(CC2=CC=C(C=C2)Cl)N)C3=NC=NC4=C3C=CN4
Procedure, shortened: as §1

IRAK-1-4 Inhibitor I = compound: C1COCCN1CCN2C3=CC=CC=C3N=C2NC(=O)C4=CC(=CC=C4)[N+](=O)[O-] [IRAK-1-4 Inhibitor I]
Procedure, shortened: as §1

ibrutinib = compound: C=CC(=O)N1CCC[C@@H](n2nc(-c3ccc(Oc4ccccc4)cc3)c3c(N)ncnc32)C1 [ibrutinib]
Procedure, shortened: as §1

[10] = compound: CC(=O)c1cnc2ccc(-c3cc(Cl)c(O)c(Cl)c3)nc2c1N[C@H]1CC[C@H](CN(C)C)CC1
Procedure, shortened: as §1

ralimetinib = compound: CC(C)(C)Cn1c(N)nc2ccc(-c3[nH]c(C(C)(C)C)nc3-c3ccc(F)cc3)nc21 [ralimetinib]
Procedure, shortened: as §1

[11] = compound: CC(C)(O)CC(=O)NCCn1ccc2ncnc(Nc3ccc(Oc4cccc(C(F)(F)F)c4)c(Cl)c3)c21
Procedure, shortened: as §1

[12] = compound: CC(C)C1=C2N=C(C=C(N2N=C1)NCC3=CC=CC=C3)NCCCCCCN
Procedure, shortened: as §1

[13] = compound: CC(C)C[C@@H](C=O)NC(=O)[C@H](CC(C)C)NC(=O)[C@H](CC(C)C)NC(=O)OCc1ccccc1
Procedure, shortened: as §1

pinometostat = compound: CC(C)N(C[C@H]1O[C@@H](n2cnc3c(N)ncnc32)[C@H](O)[C@@H]1O)[C@H]1C[C@@H](CCc2nc3cc(C(C)(C)C)ccc3[nH]2)C1 [pinometostat]
Procedure, shortened: as §1

[14] = compound: CC1=C(C(CC(=O)N1)C2=CC=C(C=C2)C(F)(F)F)C(=O)NC3=C(C=C4C(=C3)C=NN4)F
Procedure, shortened: as §1

[15] = compound: CC1=C(C2=C(C=C1)C(=O)C3=CC=CC=C3N2CCCN)C
Procedure, shortened: as §1

Measured: log2 fold change

ENO1 isoform 2 (UniProt P06733)
inactive: erlotinib 0.18 | [1] -0.341 | [2] 0.142 | [3] -0.024 | [4] 0.089 | [5] -0.029 | [6] 0.091 | [7] -0.069 | [8] -0.037 | [9] 0.107 | IRAK-1-4 Inhibitor I 0.045 | ibrutinib 0.126 | [10] 0.019 | ralimetinib 0.06 | [11] -0.035 | [12] 0.183 | [13] 0.069 | pinometostat 0.02 | [14] -0.062 | [15] 0.038

EMC7 (UniProt Q9NPA0)
inactive: erlotinib 0.02 | [1] 0.032 | [2] 0.009 | [3] 0.008 | [4] 0.062 | [5] 0.011 | [6] -0.013 | [7] 0.006 | [8] -0.007 | [9] -0.009 | IRAK-1-4 Inhibitor I 0.029 | ibrutinib -0.01 | [10] -0.071 | ralimetinib -0.108 | [11] -0.007 | [12] -0.037 | [13] 0.043 | pinometostat 0.004 | [14] -0.024 | [15] 0.058

EMC1 (UniProt Q8N766)
inactive: erlotinib -0.002 | [1] 0.052 | [2] 0.013 | [3] -0.024 | [4] -0.028 | [5] 0.045 | [6] 0.021 | [7] 0.019 | [8] -0.019 | [9] 0.026 | IRAK-1-4 Inhibitor I 0.015 | ibrutinib -0.009 | [10] 0.011 | ralimetinib -0.01 | [11] -0.011 | [12] -0.025 | [13] -0.014 | pinometostat -0.019 | [14] -0.001 | [15] -0.007

EMC3 (UniProt Q9P0I2)
inactive: erlotinib -0.024 | [1] 0.023 | [2] 0.02 | [3] -0.026 | [4] 0.022 | [5] 0.06 | [6] -0.04 | [7] -0.024 | [8] 0.024 | [9] 0.019 | IRAK-1-4 Inhibitor I 0.052 | ibrutinib -0.021 | [10] 0.014 | ralimetinib -0.001 | [11] -0.007 | [12] 0.014 | [13] 0.012 | pinometostat 0.011 | [14] -0.021 | [15] 0.012

ENO2 (UniProt P09104)
inactive: erlotinib -0.018 | [1] -0.006 | [2] 0.011 | [3] 0.053 | [4] 0.023 | [5] 0.001 | [6] 0.002 | [7] 0.006 | [8] -0.032 | [9] -0.004 | IRAK-1-4 Inhibitor I 0.028 | ibrutinib 0.066 | [10] 0.011 | ralimetinib 0 | [11] 0.01 | [12] 0.092 | [13] -0.04 | pinometostat 0.004 | [14] 0.041 | [15] -0.012

EIF2AK2 (UniProt P19525)
inactive: erlotinib -0.021 | [1] -0.24 | [2] -0.425 | [3] 0.216 | [4] -0.104 | [5] -0.04 | [6] -0.191 | [7] 0.159 | [8] 0.102 | [9] -0.211 | IRAK-1-4 Inhibitor I -0.289 | ibrutinib 0.182 | [10] 0.099 | ralimetinib 0.191 | [11] 0.106 | [12] -0.339 | [13] 0.149 | pinometostat 0.579 | [15] -0.135

EML5 isoform 5 (UniProt Q05BV3)
inactive: erlotinib -0.111 | [1] 0.222 | [3] 0.024 | [4] 0.121 | [5] 0.099 | [6] -0.027 | [7] -0.087 | [8] 0.019 | [9] -0.008 | IRAK-1-4 Inhibitor I 0.071 | ibrutinib 0.015 | [10] -0.023 | ralimetinib -0.076 | [12] -0.041 | [13] 0.023 | pinometostat 0 | [14] 0.124 | [15] 0.303

ELOVL1 (UniProt Q9BW60)
inactive: erlotinib -0.022 | [1] 0.019 | [2] -0.01 | [3] -0.059 | [4] 0.036 | [5] 0.011 | [6] 0.069 | [7] -0.11 | [8] -0.124 | [9] 0.014 | IRAK-1-4 Inhibitor I 0.079 | ibrutinib -0.006 | [10] 0.018 | ralimetinib 0.029 | [11] -0.197 | [13] 0.036 | pinometostat 0.063 | [15] 0.099
active: [12] -0.628

EIF4H isoform 2 (UniProt Q15056)
inactive: erlotinib -0.156 | [1] 0.09 | [3] 0.001 | [4] -0.228 | [7] 0.411 | [10] -0.044 | [12] 0.068

EHD2 (UniProt Q9NZN4)
inactive: erlotinib -0.044 | [1] 0.025 | [2] 0.013 | [3] -0.077 | [4] 0.007 | [5] -0.01 | [6] -0.003 | [7] 0.01 | [8] -0.008 | [9] 0.041 | IRAK-1-4 Inhibitor I 0.009 | ibrutinib 0.008 | [10] -0.038 | ralimetinib 0.003 | [11] -0.033 | [12] 0.002 | [13] 0.036 | pinometostat -0.044 | [15] 0.001

EIF4E2 (UniProt O60573)
inactive: erlotinib 0.013 | [1] 0.056 | [2] -0.026 | [3] -0.045 | [4] -0.007 | [5] -0.054 | [6] -0.111 | [7] -0.009 | [8] -0.032 | [9] -0.008 | IRAK-1-4 Inhibitor I 0.064 | ibrutinib -0.007 | [10] -0.272 | ralimetinib 0.012 | [11] -0.036 | [12] -0.109 | [13] 0.118 | pinometostat 0.043 | [15] 0.116

EPB41, A0A2R8Y6D0
inactive: erlotinib -0.163 | [1] 0.034 | [3] 0.033 | [4] -0.098 | [5] 0.021 | [6] 0.06 | [7] -0.137 | [8] -0.158 | [9] 0.106 | ibrutinib 0.038 | [10] -0.083 | ralimetinib -0.003 | [12] 0.112 | [13] 0.03 | [14] -0.028 | [15] 0
